# This is one part of the list. Further columns of the screen follow, without active or inactive calls. Compounds called inactive in the main read-out are mostly missing here. Words in brackets tell the shape of the fitted curve; partial curves, single points and poor fits give uncertain potencies.
# Experiment: qHTS Assay for Lipid Storage Modulators in Drosophila S3 Cells;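 on cell number change: cells counted by Cell Tracker Red CMTPX staining in the red channel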
# Conditions: BODIPY lipid droplet fluorescence, 18-24 h; for cell number change: measured here: cell count max response, cells fed with added oleic acid
# Outline: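 Drosophila S3 cells loaded with oleic acid (400 uM, as added) and compounds at several concentrations; lipid droplets imaged by 488-nm laser-scanning cytometry, 500–530 nm intensity and object ratio to cell channel. Percent activity normalized to 20 uM Triacsin C.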
# [1] = measured here: lipid fluorescence (Fed channel) AC50, cells fed with added oleic acid
# [2] = measured here: cell number channel AC50, cells fed with added oleic acid
Compound,AC50 [1],cell number change [%],AC50 [2]
CCSc1nc(-c2ccccc2)nc(C(Cl)Cl)n1,"5.8 µM [falling, partial curve]",,
O=C(NCc1ccccc1F)c1ccncc1,"25.9 µM [falling, single point]",20.8,
O=C(NCc1ccc(F)cc1)c1ccc(CNc2c(N3CCOCC3)c(=O)c2=O)cc1,"3.26 µM [falling, full curve, poor fit]",-3.86,"0.00517 µM [falling, full curve, poor fit]"
Cc1cccc(/C=C(\C(=O)C(=O)O)c2ccc3ccccc3n2)c1,"29.1 µM [rising, single point]",24,
COc1ccc(NC(=S)Nn2cnnc2)c(OC)c1,,9.54,"0.146 µM [rising, full curve, poor fit]"
CCC(C)Sc1nnc(Cc2cc(=O)[nH]c(=O)[nH]2)n1-c1ccc(OC)cc1 (stereo not drawn),"0.461 µM [falling, full curve, poor fit]",-11.1,
O=C(N/N=C/c1ccc2ncccc2c1)c1cccc([N+](=O)[O-])c1,"29.1 µM [falling, single point]",18.5,
Cc1cccc(C(P(=O)(c2ccccc2)c2ccccc2)P(=O)(c2ccccc2)c2ccccc2)n1,"29.1 µM [falling, single point]",-25.2,
COc1ccc(-n2c(SCC(=O)Nc3ccc(NC(C)=O)cc3)nc3c([nH]c4ccccc43)c2=O)cc1OC,"6.51 µM [rising, single point]",0.379,
Cc1ccc(N2C(=O)C3CC3C2=O)cc1 (stereo not drawn),,29.3,"0.00461 µM [falling, full curve, poor fit]"
Cc1[nH]c2ccccc2c1C(=O)CN1CCC(C)CC1,,35.9,"18.4 µM [rising, single point]"
CCOc1ccc(OCC)c(NC(=O)CN(C)S(=O)(=O)c2ccc3nc(C)sc3c2)c1,"5.17 µM [rising, partial curve]",-0.286,
CCNS(=O)(=O)c1ccc2c3c(cccc13)C(=O)N2,,-2.23,"0.13 µM [falling, full curve, poor fit]"
Cc1noc(C)c1C(=O)N1CCc2ccccc2C1,"32.6 µM [falling, partial curve, poor fit]",-37,"0.058 µM [falling, full curve]"
C=CCn1c(-c2oc3nc(-c4ccccc4)cc(-c4ccccc4)c3c2N)n[nH]c1=S,"1.16 µM [rising, full curve]",33.1,"1.16 µM [rising, partial curve]"
c1ccc(CSc2nnc(-c3ccncc3)o2)cc1,"20.6 µM [rising, single point]",-7.14,
O=C(c1ccc(Cl)c(Cl)c1)N1CCC(=O)N(C(COCc2cccc(C(F)(F)F)c2)Cc2ccccc2)CC1 (stereo not drawn),"6.51 µM [rising, single point]",-6.03,
CCCCN1C(=O)CCC(C(=O)O)C1c1ccc(OC)cc1 (stereo not drawn),"0.651 µM [falling, single point]",,"6.51 µM [falling, single point]"
Cc1ccc(S(=O)(=O)N2CCn3cccc3C2C)cc1 (stereo not drawn),"0.13 µM [falling, full curve, poor fit]",8.63,
Cc1cc(Nc2ccc(Cl)cc2)nc(N2CCOCC2)n1,,31,"0.082 µM [rising, full curve]"
COc1ccc(CNc2ccc3c(c2)CCC3)cc1Br,,-21.5,

# An excerpt of these results, bar-delimited.
Compound | AC50 [1] | cell number change [%] | AC50 [2]
CCSc1nc(-c2ccccc2)nc(C(Cl)Cl)n1 | 5.8 µM [falling, partial curve] |  | 
Cc1cccc(/C=C(\C(=O)C(=O)O)c2ccc3ccccc3n2)c1 | 29.1 µM [rising, single point] | 24 | 
COc1ccc(NC(=S)Nn2cnnc2)c(OC)c1 |  | 9.54 | 0.146 µM [rising, full curve, poor fit]
CCC(C)Sc1nnc(Cc2cc(=O)[nH]c(=O)[nH]2)n1-c1ccc(OC)cc1 (stereo not drawn) | 0.461 µM [falling, full curve, poor fit] | -11.1 | 
Cc1cccc(C(P(=O)(c2ccccc2)c2ccccc2)P(=O)(c2ccccc2)c2ccccc2)n1 | 29.1 µM [falling, single point] | -25.2 | 
Cc1ccc(N2C(=O)C3CC3C2=O)cc1 (stereo not drawn) |  | 29.3 | 0.00461 µM [falling, full curve, poor fit]
Cc1[nH]c2ccccc2c1C(=O)CN1CCC(C)CC1 |  | 35.9 | 18.4 µM [rising, single point]
CCNS(=O)(=O)c1ccc2c3c(cccc13)C(=O)N2 |  | -2.23 | 0.13 µM [falling, full curve, poor fit]
Cc1noc(C)c1C(=O)N1CCc2ccccc2C1 | 32.6 µM [falling, partial curve, poor fit] | -37 | 0.058 µM [falling, full curve]
C=CCn1c(-c2oc3nc(-c4ccccc4)cc(-c4ccccc4)c3c2N)n[nH]c1=S | 1.16 µM [rising, full curve] | 33.1 | 1.16 µM [rising, partial curve]
c1ccc(CSc2nnc(-c3ccncc3)o2)cc1 | 20.6 µM [rising, single point] | -7.14 | 
CCCCN1C(=O)CCC(C(=O)O)C1c1ccc(OC)cc1 (stereo not drawn) | 0.651 µM [falling, single point] |  | 6.51 µM [falling, single point]
Cc1ccc(S(=O)(=O)N2CCn3cccc3C2C)cc1 (stereo not drawn) | 0.13 µM [falling, full curve, poor fit] | 8.63 | 
Cc1cc(Nc2ccc(Cl)cc2)nc(N2CCOCC2)n1 |  | 31 | 0.082 µM [rising, full curve]
COc1ccc(CNc2ccc3c(c2)CCC3)cc1Br |  | -21.5 | 

# Additional results:

Compound,AC50 [1],cell number change [%],AC50 [2]
COc1cccc(CC(=O)N2CCC(CCC(=O)Nc3cccc(OC)c3)CC2)c1,"0.366 µM [rising, partial curve]",,
COC(=O)CCP(=O)(O)Cc1ccccc1CP(=O)(O)CCC(=O)OC,"29.1 µM [falling, single point]",-20.5,
c1ccc(-c2cn3nc4c(nc3n2)CCCC4)cc1,"6.51 µM [rising, single point]",0.0472,
COc1ccc(/C=N/NC(=O)c2ccn[nH]2)cc1COc1ccc(F)cc1,,-24.3,
c1ccc2c(c1)ncn2-c1ccc(-c2ccnc3ncnn23)cc1,,54.6,"5.8 µM [rising, partial curve, poor fit]"
COc1ccc(OC)c(NC(=O)CCn2cccc2)c1,,16.5,
Fc1ccc(CNc2nc3ccccc3n3cnnc23)cc1,"0.092 µM [rising, full curve, poor fit]",-0.737,
COc1ccc(CCNC(=O)C(=O)NCC2OCCN2S(=O)(=O)c2ccc(OC)c(OC)c2)cc1 (stereo not drawn),"0.82 µM [falling, partial curve]",-14.7,
COCCNC(=O)c1ccccc1NC(=O)Cc1ccccc1,,6.05,
Cc1ccccc1OCC(=O)NNC(=S)NC(=O)c1ccccc1[N+](=O)[O-],"11.6 µM [falling, partial curve]",-46.1,"1.03 µM [falling, full curve]"
COc1cc2c(cc1NC(=O)CSc1nc3cc(Cl)ccc3s1)oc1ccccc12,"16.4 µM [falling, partial curve]",-47,"13 µM [falling, partial curve]"
C=C(C)CSc1nnc([C@@H](NC(=O)OC(C)(C)C)C(C)CC)o1 (stereo partly drawn),"0.0291 µM [rising, full curve, poor fit]",-17.5,
CCC(Oc1cc(Cl)ccc1Cl)C(=O)NN1C(=O)C2C3CCC(C3=C(C)C)C2C1=O (stereo not drawn),,-40.8,"32.6 µM [falling, single point]"
COCCN(C(=S)Nc1ccc(Cl)cc1OC)C1CCN(C(C)=O)CC1,"10.3 µM [rising, partial curve, poor fit]",8.49,
COc1ccc(C2C3=C(CCCC3=O)Nc3nc(SCc4ccc(C(=O)O)cc4)nn32)cc1OC (stereo not drawn),"5.17 µM [falling, single point]",13.1,
Cc1cc(C(=O)COC(=O)CNS(=O)(=O)c2ccc3ccccc3c2)c(C)n1-c1ccccc1,"10.3 µM [rising, single point]",11.6,
COC(=O)[C@H](Cc1c[nH]c2ccccc12)NC(=O)NCc1ccc(OC)c(OC)c1,"6.51 µM [falling, single point]",8.38,
Cc1n[nH]c(=O)c2c(NC(=O)CSc3nn(-c4ccccc4)c(=S)s3)oc(C)c12,,,"2.31 µM [rising, partial curve]"
Cc1[nH]c(C)c(S(=O)(=O)Nc2ccc(F)cc2Cl)c1C(=O)N1CCCC1,"4.11 µM [rising, single point]",,
CCc1nnc(NS(=O)(=O)c2ccc(N=Cc3c(C)[nH]n(-c4ccc(C)cc4)c3=O)cc2)s1,"18.4 µM [rising, single point]",-4.46,
CCNC(=S)NNC(=O)Nc1ccccc1,"6.51 µM [falling, single point]",-4.03,"0.103 µM [falling, full curve, poor fit]"

Compound,AC50 [1],cell number change [%],AC50 [2]
O=C(O)c1ncn(Cc2ccc(Br)cc2)c1C(=O)O,"0.461 µM [falling, full curve, poor fit]",-5.19,
O=C(N/N=C/c1ccncc1)c1cnccn1,"29.1 µM [rising, single point]",11,
CCOc1ncccc1C(=O)Nc1ncc(C)s1,"0.116 µM [rising, single point]",,"0.13 µM [rising, partial curve, poor fit]"
O=C(NCC1CCCN1S(=O)(=O)c1cccs1)c1ccccc1F (stereo not drawn),,26.1,
Cc1ccc2nc(Nc3ccccc3)c(C=O)c(=O)n2c1,"29.1 µM [falling, single point]",4.14,
O=C(c1ccco1)N1CCN(C(=O)c2cn(-c3ccccc3)nc2-c2ccccc2)CC1,"6.51 µM [rising, single point]",8.39,
CCOC(=O)Cc1csc(NS(C)(=O)=O)n1,,-21.8,"0.00461 µM [falling, full curve, poor fit]"
CC(C)c1nnc(NC(=O)CCC(=O)NCc2cccs2)s1,,4.8,
COc1cc(C(=O)NCC(c2cccs2)N2CCc3ccccc32)cc(OC)c1OC (stereo not drawn),,-11.8,"4.11 µM [rising, single point]"
COc1ccc(S(=O)(=O)N/N=C\c2ccccc2F)cc1,"29.1 µM [rising, single point]",-4.95,
CNc1sc(C(=O)c2ccc(F)cc2)c(N)c1-c1nc2ccccc2s1,"16.4 µM [falling, partial curve]",-49.2,"18.4 µM [falling, single point]"
COc1cccc2c1OC1(CCN(C(C)C)CC1)N1N=C(c3cccnc3)CC21 (stereo not drawn),"0.651 µM [rising, single point]",22.2,
CNc1snc(C)c1C(=O)OCC(=O)c1cc(F)ccc1OC,,12.3,
COc1ccccc1NC(=O)COC(=O)C1C2CC3OC(=O)C1C3C2 (stereo not drawn),,-1.9,
COc1ccccc1OCCNC(=O)c1cc(SC)ccc1Cl,"18.4 µM [rising, partial curve]",6.74,
Cc1ccc(CNc2nc(C)nc3sc4c(c23)CCC4)cc1,"23.1 µM [falling, single point]",-17.9,
Cn1c(C(=O)N2CCC(C(N)=O)CC2)cc2cc(Cl)ccc21,"0.116 µM [rising, full curve]",5.03,
CC(=O)Nc1ccc(OCC(=O)N(CC(C)C)C2CCS(=O)(=O)C2)cc1 (stereo not drawn),"1.3 µM [falling, full curve, poor fit]",-38.5,"1.16 µM [falling, full curve, poor fit]"
Cc1ccc(NCN2C(=O)C(=O)c3ccccc32)nc1,"13 µM [falling, single point]",-20.2,

# Source: PubChem BioAssay AID2685 (National Center for Advancing Translational Sciences (NCATS), 2010)
